Experimental findings from the supplement of paper PMC8256030 are described below.

Where “and” joins values, the source holds several entries; their conditions need not be identical. Equal values may be shown once. This is one part of the list. Repeats in this data set agree poorly, so a single value says little.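 HEK293T cells were given each compound shortly before transfection with a reporter in which red mCherry is followed by the SARS-CoV-2 frameshift element and then GFP in the −1 frame, so GFP appears only after frameshifting.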

This assay has as its system HEK293T. Description: percent viability (nuclei count) relative to control; higher = more viable cells. The conditions noted are these: 10 µM; 24 h.

Take `C[N+]12CCCCC1CCC(=C(c1cccs1)c1cccs1)C2` (stereo unspecified) [tiquizium bromide]: the percent viability is 190%.
Consider `CC(C)[C@H](NC(=O)[C@H](CC(=O)O)NC(=O)[C@H](CCCCN)NC(=O)[C@@H](N)CCCN=C(N)N)C(=O)N[C@@H](Cc1ccc(O)cc1)C(=O)O` [thymopentin], for which the percent viability is 189%.
Then `COc1cc(Cc2cnc(N)nc2N)cc(OC)c1Br` [brodimoprim], with 374%; and `NC(=O)CN1C(=O)COc2ccccc21` [paraxazone], with 156%; and `CC1CCc2cc(F)cc3c(=O)c(C(=O)O)cn1c23` (stereo unspecified) [flumequine], with 132%.
Then `CCC[C@@H]1C[C@@H](C(=O)N[C@@H]([C@H]2O[C@H](SC)[C@H](O)[C@@H](O)[C@H]2O)[C@@H](C)O)N(C)C1` [lincomycin], with 323%; and `CS(=O)(=O)Nc1cc2occ(NC=O)c(=O)c2cc1Oc1ccccc1` [iguratimod], with 196%; and `CC(=O)OCC(=O)[C@H]1CC[C@H]2[C@@H]3CCC4=CC(=O)CC[C@]4(C)[C@H]3CC[C@]12C`, with 246%.
With `CCCCC(=O)O[C@H]1CC[C@H]2[C@@H]3CCc4cc(O)ccc4[C@H]3CC[C@]12C` [estradiol valerate], the percent viability is 206%.
Under `NCCCC(O)(P(=O)(O)O)P(=O)(O)O` [alendronic acid] stands 31.2%; under `C[C@@H](n1cnc2cc(Cl)ccc2c1=O)[C@](O)(Cn1cncn1)c1ccc(F)cc1F` [albaconazole], 354%; under `O=C(O)CCNC(=O)c1ccc(/N=N/c2ccc(O)c(C(=O)O)c2)cc1` [balsalazide], 218%.
Under `Cc1cnc(C(=O)NCCc2ccc(S(=O)(=O)NC(=O)NC3CCCCC3)cc2)cn1` [glipizide] stands 175% and 311%; under `CC1(C)S[C@@H]2[C@H](NC(=O)[C@H](NC(=O)N3CCN(S(C)(=O)=O)C3=O)c3ccccc3)C(=O)N2[C@H]1C(=O)O` [Mezlin], 248%; under `N=C(N)N/N=C/c1c(Cl)cccc1Cl` [Guanabenz], 251%.
Then `Nc1nc(/C(=C/CC(=O)O)C(=O)N[C@@H]2C(=O)N3C(C(=O)O)=CCS[C@H]23)cs1`, with 203%; and `COCC1=C(C(=O)OC(C)OC(=O)OC(C)C)N2C(=O)[C@@H](NC(=O)/C(=N\OC)c3csc(N)n3)[C@H]2SC1` (stereo partly specified), with 370%.
For the molecule `CN1C(C(=O)Nc2ccccn2)=C(O)c2sc(Cl)cc2S1(=O)=O` [Lornoxicam], the percent viability stood at 28.2%.
Then `C[C@H](Cc1ccc(O)c(O)c1)[C@@H](C)Cc1ccc(O)c(O)c1` [Masoprocol], with 23.9%.
Then `CN1C[C@@H]2C[C@H]1CN2c1cc2c(cc1F)c(=O)c(C(=O)O)cn2C1CC1` [danofloxacin], with 142%.
Then `CCOC(=O)CN1CCN(C(=O)/C=C/c2cc(OC)c(OC)c(OC)c2)CC1` [cinepazet], with 107%; and `O=C(O[C@H]1CN2CCC1CC2)N1CCc2ccccc2[C@@H]1c1ccccc1` [Vesicare], with 350%.
On to `OC[C@@H](O)[C@@H](O)CO`, for which the percent viability worked out at 376%.
As for `CNC1(C)C2CCC(C2)C1(C)C` (stereo unspecified) [mecamylamine], the percent viability is 141% and 203% and 186%.
Then `Nc1c(CC(=O)O)cccc1C(=O)c1ccccc1` [amfenac], with 78.9%; and `CCCCC(CC)COC(=O)c1ccccc1O` (stereo unspecified) [octisalate], with 116%.
